Measured values published in paper PMC9791040, “CtrA activates the expression of glutathione S-transferase conferring oxidative stress resistance to Ehrlichia chaffeensis” (Frontiers in Cellular and Infection Microbiology, 2022).
Tags and fusion partners may be left off the protein sequences shown.

Tested on: T1, GST-rCtrA (Ehrlichia chaffeensis)
T1 sequence (looked up): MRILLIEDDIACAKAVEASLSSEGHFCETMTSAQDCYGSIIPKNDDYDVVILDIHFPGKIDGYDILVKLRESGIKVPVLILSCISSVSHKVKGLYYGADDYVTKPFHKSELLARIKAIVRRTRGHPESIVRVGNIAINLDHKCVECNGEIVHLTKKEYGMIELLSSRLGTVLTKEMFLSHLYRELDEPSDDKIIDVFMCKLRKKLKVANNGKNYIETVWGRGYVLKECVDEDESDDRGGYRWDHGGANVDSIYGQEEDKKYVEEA
Experiment: EMSA
Settings: 2.5 uM protein, 50 ng DNA, EMSA: 10 mM Tris-HCl pH 7.5, 1 mM DTT, 20 uL, 50 pmol protein, on ice 30 min, 8% native PAGE in 1x TBE, ethidium bromide stain, recombinant protein, residues 1-265, protein details: N-terminal GST (pET-41a(+)), probe letters rebuilt from the primers and the genome

“GTGCTCGAGTTTCTAGGCTATTACTATTTAACTACCTATTTGAAAAATAAAGCACTTGATCATAGACTGATAGTCTTTACTTGTCTGAACTTTAATCAGGAATGTAATATAAAAACTATAAAGATTCAGAATTACATTGCTAGTAAATATAATAAATAATTACCGTAGTAAATTCTATATACAAAAGAATAGATATATATTAAAAACACAACCATAATTATTAATTTTAATATTAACAGGTTATCTATCTGTAATTCTATAAGATAAGTCTAAAAATATTACATTGCACAAGGTTACCAAGTCTG (double strand) [gst promoter probe, 305 bp]”: binds.
